Residue numbers refer to the chain shown, from its start.
Test system: SULT2A1
Test: Gel filtration chromatography of recombinant human SULT2A1 (Sephadex G-100)
Conditions: Sephadex G-100, 4° C., 5 mM K phosphate buffer pH 7.5
Procedure: Gel Filtration Chromatography: Gel filtration chromatography of recombinant human SULT2A1 was performed at 4° C. with a 2×25 cm column of Sephadex G-100 superfine. The mobile phase was 5 mM K phosphate buffer, pH 7.5, and 3 ml fractions were collected at a flow rate of approximately 1.8 mL per h. The fractions were assayed for SULT2A1 activity. Standards for column calibration were eluted separately and included Dextran Blue 2000, bovine serum albumin (67 kDa), ovalbumin (45 kDa), chymotrypsinogen A (20 kDa) and ribonuclease A (13.7 kDa).
The Ala261Thr polymorphism is located within the dimerization motif at the C-terminus of the conserved ‘Region IV’ SULT signature sequence, and may alter the formation of the SULT2A1 homodimer. To test that hypothesis, recombinant WT and codon Thr261 variant allozyme preparations were subjected to gel filtration chromatography through Sephadex G-100.

B1: WT: recombinant wild type (reference) human SULT2A1 polypeptide, SEQ ID NO:3, expressed in COS-1 cells (protein, listed as Homo Sapiens)
chain: MSDDFLWFEGIAFPTMGFRSETLRKVRDEFVIRDEDVIILTYPKSGTNWLAEILCLMHSKGDAKWIQSVPIWERSPWVESEIGYTALSESESPRLFSSHLPIQLFPKSFFSSKAKVIYLMRNPRDVLVSGYFFWKNMKFIKKPKSWEEYFEWFCQGTVLYGSWFDHIHGWMPMREEKNFLLLSYEELKQDTGRTIEKICQFLGKTLEPEELNLILKNSSFQSMKENKMSNYSLLSVDYVVDKAQLLRKGVSGDWKNHFTVAQAEDFDKLFQEKMADLPRELFPWE
- major peak on gel filtration (dimer or monomer): dimer

B2: Ala261Thr: SULT2A1 allozyme having a threonine at amino acid 261 in place of an alanine (protein)
chain: B1 chain with A261T
- major peak on gel filtration (dimer or monomer): disrupts dimerization
- major peak on gel filtration (dimer or monomer) (listed as codon Thr261 variant allozyme): monomer
